Measured values: paper PMC4742980

Amino acid sequences for entries named in this document (tags omitted).
UniProt P11387: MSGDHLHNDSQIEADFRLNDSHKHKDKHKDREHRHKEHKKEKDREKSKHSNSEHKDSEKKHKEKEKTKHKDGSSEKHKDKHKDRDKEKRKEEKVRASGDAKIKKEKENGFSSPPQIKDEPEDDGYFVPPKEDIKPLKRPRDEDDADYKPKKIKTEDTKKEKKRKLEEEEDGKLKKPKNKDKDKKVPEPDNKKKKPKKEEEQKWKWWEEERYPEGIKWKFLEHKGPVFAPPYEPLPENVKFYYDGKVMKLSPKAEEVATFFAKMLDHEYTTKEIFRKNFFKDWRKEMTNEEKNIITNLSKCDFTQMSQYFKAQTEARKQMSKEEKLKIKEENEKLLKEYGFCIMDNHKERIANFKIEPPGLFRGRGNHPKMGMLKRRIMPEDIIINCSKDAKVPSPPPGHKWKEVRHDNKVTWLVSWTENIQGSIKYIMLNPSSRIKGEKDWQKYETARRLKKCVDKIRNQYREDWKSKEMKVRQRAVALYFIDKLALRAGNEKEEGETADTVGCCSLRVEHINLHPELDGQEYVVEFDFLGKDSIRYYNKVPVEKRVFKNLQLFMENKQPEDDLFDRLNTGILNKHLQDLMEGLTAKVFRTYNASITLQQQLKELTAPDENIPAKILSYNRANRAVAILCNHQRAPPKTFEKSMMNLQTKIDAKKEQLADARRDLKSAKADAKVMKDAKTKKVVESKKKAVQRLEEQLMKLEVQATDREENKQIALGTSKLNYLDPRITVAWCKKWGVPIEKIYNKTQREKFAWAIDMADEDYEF
UniProt Q3TKT4: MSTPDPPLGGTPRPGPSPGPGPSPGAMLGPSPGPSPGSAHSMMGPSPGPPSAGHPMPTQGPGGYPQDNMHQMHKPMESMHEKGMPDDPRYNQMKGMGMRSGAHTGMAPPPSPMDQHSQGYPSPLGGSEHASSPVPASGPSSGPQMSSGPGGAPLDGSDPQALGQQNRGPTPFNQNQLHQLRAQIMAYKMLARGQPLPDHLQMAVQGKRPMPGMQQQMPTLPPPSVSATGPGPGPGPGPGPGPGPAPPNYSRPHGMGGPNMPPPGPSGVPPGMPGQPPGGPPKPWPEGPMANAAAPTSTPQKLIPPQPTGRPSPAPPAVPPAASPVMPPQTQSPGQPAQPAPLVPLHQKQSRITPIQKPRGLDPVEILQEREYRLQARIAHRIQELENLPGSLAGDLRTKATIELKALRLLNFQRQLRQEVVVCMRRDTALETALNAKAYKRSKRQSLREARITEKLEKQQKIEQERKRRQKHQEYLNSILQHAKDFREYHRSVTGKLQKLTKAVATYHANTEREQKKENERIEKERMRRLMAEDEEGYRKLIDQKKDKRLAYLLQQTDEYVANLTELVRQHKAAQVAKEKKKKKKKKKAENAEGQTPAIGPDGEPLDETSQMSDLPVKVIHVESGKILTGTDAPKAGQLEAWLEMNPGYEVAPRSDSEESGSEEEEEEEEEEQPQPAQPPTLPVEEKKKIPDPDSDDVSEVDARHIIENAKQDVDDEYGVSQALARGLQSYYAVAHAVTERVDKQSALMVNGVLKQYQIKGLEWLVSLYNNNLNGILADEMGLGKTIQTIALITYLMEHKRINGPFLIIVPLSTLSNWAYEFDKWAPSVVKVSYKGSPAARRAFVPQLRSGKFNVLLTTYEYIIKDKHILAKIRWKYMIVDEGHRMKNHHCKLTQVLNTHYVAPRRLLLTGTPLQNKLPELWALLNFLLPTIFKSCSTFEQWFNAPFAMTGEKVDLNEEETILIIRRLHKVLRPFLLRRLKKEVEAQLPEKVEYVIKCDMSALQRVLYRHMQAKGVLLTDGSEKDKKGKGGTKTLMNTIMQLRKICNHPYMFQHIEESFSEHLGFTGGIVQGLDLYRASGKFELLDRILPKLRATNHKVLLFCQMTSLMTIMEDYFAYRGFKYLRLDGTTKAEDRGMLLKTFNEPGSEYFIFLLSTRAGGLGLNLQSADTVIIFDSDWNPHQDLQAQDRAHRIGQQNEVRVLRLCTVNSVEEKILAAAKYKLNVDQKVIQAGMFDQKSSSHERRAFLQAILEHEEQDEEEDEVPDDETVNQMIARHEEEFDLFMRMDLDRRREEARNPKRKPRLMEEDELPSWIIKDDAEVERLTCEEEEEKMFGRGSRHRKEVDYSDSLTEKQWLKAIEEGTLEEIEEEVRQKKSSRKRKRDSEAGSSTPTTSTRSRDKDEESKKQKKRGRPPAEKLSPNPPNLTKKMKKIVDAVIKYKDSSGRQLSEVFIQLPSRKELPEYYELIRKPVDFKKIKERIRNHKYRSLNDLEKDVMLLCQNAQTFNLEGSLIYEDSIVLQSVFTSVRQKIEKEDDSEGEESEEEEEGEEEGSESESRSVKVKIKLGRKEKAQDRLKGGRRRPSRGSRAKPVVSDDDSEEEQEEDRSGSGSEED
UniProt P09405: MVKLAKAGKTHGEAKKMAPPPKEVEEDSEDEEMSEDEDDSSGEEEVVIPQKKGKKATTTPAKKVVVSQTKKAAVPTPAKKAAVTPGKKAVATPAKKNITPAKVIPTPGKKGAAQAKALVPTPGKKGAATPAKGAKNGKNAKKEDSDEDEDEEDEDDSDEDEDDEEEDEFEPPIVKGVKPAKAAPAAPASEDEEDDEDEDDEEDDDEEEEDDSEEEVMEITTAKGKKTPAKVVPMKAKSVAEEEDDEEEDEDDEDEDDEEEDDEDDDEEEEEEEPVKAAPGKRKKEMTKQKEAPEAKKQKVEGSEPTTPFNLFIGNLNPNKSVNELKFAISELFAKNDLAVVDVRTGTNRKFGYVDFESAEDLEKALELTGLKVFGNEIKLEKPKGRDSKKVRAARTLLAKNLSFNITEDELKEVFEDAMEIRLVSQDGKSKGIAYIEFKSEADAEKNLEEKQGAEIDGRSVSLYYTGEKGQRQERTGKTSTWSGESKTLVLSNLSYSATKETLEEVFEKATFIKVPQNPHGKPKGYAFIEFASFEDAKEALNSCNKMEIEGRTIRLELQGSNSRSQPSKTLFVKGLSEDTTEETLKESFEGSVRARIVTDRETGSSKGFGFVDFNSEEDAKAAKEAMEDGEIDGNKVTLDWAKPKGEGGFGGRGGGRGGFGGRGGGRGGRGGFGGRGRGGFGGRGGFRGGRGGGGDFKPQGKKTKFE
UniProt Q60596: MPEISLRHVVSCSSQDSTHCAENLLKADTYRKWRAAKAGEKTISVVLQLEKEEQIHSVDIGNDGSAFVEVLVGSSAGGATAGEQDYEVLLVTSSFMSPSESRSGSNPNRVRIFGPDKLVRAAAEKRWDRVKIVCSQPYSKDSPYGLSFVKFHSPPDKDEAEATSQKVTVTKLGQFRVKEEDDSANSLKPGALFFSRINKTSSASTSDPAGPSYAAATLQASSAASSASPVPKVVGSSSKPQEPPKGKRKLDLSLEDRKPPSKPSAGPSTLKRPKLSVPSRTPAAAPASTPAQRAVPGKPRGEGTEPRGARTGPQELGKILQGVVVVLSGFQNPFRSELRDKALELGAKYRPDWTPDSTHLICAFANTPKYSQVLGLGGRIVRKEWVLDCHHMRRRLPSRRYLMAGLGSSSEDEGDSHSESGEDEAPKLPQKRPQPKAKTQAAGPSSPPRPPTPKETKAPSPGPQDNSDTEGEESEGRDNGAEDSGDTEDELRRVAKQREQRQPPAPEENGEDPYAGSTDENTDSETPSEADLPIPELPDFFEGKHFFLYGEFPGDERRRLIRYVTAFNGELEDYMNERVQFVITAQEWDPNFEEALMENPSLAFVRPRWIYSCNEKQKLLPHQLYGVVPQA
UniProt A2BH40: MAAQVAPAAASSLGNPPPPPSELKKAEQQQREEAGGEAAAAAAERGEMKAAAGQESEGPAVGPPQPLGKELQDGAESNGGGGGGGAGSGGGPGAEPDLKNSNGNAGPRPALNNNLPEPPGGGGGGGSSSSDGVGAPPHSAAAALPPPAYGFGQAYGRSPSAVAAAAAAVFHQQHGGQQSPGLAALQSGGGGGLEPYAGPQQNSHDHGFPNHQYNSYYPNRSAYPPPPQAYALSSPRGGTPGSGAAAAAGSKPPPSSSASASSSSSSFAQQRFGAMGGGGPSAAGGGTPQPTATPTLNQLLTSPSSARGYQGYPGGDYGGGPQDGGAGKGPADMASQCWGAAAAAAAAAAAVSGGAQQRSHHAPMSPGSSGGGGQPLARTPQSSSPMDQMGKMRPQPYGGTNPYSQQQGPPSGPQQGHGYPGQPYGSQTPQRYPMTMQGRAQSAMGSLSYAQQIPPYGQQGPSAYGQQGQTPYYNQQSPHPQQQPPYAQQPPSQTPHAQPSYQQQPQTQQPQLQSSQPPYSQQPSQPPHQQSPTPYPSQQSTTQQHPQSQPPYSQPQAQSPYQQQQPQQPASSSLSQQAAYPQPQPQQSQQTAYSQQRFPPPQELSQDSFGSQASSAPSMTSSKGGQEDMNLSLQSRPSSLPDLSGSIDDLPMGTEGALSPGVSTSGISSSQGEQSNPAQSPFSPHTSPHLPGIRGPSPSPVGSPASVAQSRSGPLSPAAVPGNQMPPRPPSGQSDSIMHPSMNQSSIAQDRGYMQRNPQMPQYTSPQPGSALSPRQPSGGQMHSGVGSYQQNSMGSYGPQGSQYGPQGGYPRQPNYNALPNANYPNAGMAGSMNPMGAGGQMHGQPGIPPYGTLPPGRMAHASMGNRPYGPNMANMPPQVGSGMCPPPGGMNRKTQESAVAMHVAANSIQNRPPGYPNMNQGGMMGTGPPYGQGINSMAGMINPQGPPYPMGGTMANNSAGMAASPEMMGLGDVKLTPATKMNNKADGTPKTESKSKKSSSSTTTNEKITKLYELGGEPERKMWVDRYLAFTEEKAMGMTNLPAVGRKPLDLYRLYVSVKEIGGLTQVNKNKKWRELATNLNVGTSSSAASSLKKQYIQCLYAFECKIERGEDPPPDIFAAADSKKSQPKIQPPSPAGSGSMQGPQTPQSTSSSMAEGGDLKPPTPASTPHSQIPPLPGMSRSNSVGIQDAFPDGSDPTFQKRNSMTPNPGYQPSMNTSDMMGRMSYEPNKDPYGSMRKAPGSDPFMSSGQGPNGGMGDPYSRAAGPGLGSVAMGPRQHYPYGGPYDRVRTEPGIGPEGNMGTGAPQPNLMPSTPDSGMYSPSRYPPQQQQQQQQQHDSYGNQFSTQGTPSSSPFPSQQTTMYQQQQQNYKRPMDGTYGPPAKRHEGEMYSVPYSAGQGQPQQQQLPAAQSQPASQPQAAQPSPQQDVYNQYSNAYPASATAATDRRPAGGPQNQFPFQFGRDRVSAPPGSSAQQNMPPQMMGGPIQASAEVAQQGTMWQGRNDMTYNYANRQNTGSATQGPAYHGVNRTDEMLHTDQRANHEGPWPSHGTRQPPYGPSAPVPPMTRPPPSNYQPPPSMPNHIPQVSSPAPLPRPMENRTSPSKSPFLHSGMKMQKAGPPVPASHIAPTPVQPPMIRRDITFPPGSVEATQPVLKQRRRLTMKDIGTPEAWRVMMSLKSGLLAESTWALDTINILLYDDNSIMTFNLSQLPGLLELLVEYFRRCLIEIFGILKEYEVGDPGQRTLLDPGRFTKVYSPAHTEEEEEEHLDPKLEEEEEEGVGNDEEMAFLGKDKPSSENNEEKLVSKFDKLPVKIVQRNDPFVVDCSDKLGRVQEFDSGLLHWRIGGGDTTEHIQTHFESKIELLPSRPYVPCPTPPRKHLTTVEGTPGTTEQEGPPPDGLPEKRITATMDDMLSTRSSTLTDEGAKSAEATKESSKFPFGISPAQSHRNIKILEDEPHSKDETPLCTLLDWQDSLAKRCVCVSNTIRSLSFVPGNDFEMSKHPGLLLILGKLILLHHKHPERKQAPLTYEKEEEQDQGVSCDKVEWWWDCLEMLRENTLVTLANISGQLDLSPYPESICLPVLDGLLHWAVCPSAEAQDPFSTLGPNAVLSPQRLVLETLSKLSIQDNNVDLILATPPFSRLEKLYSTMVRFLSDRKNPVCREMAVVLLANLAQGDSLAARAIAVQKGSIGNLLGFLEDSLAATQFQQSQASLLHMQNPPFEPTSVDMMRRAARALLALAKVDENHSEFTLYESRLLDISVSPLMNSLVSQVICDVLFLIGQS
UniProt Q9JLV6: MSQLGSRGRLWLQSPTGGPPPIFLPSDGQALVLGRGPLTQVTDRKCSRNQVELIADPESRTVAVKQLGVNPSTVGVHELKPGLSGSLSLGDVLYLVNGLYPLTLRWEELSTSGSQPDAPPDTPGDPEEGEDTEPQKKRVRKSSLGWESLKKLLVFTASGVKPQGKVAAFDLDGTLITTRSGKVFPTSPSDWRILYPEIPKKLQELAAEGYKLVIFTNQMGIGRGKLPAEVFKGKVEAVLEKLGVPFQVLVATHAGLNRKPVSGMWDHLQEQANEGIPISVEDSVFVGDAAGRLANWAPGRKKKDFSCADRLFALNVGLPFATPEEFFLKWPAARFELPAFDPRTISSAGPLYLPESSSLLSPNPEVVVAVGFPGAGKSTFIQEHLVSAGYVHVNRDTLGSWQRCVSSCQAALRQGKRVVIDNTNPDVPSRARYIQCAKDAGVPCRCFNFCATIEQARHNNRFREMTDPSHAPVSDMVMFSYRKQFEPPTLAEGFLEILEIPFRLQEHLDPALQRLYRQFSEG

B1: FBL (endogenous, mouse) (protein, UniProt P35550 1-327)
chain: MKPGFSPRGGGFGGRGGFGDRGGRGGGRGGRGGFGGGRGGFGGGGRGRGGGGGGFRGRGGGGGRGGGFQSGGNRGRGGGRGGKRGNQSGKNVMVEPHRHEGVFICRGKEDALVTKNLVPGESVYGEKRVSISEGDDKIEYRAWNPFRSKLAAAILGGVDQIHIKPGAKVLYLGAASGTTVSHVSDIVGPDGLVYAVEFSHRSGRDLINLAKKRTNIIPVIEDARHPHKYRMLIAMVDVIFADVAQPDQTRIVALNAHTFLRNGGHFVISIKANCIDSTASAEAVFASEVKKMQQENMKPQEQLTLEPYERDHAVVVGVYRPPPKVKN
B2: NONO (endogenous, mouse) (protein, UniProt Q99K48 1-473)
chain: MQSNKAFNLEKQNHTPRKHHQHHHQQHHQQQQQQQQQQPPPPIPANGQQASSQNEGLTIDLKNFRKPGEKTFTQRSRLFVGNLPPDITEEEMRKLFEKYGKAGEVFIHKDKGFGFIRLETRTLAEIAKVELDNMPLRGKQLRVRFACHSASLTVRNLPQYVSNELLEEAFSVFGQVERAVVIVDDRGRPSGKGIVEFSGKPAARKALDRCSEGSFLLTTFPRPVTVEPMDQLDDEEGLPEKLVIKNQQFHKEREQPPRFAQPGSFEYEYAMRWKALIEMEKQQQDQVDRNIKEAREKLEMEMEAARHEHQVMLMRQDLMRRQEELRRMEELHNQEVQKRKQLELRQEEERRRREEEMRRQQEEMMRRQQEGFKGTFPDAREQEIRMGQMAMGGAMGINNRGAMPPAPVPPGTPAPPGPATMMPDGTLGLTPPTTERFGQAATMEGIGAIGGTPPAFNRPAPGAEFAPNKRRRY
B3: SFPQ (endogenous, mouse) (protein, UniProt Q8VIJ6 1-699)
chain: MSRDRFRSRGGGGGGFHRRGGGGGRGGLHDFRSPPPGMGLNQNRGPMGPGPGGPKPPLPPPPPHQQQQQPPPQQPPPQQPPPHQQPPPHQPPHQQPPPPPQESKPVVPQGPGSAPGVSSAPPPAVSAPPANPPTTGAPPGPGPTPTPPPAVPSTAPGPPPPSTPSSGVSTTPPQTGGPPPPPAGGAGPGPKPGPGPGGPKGGKMPGGPKPGGGPGMGAPGGHPKPPHRGGGEPRGGRQHHAPYHQQHHQGPPPGGPGPRTEEKISDSEGFKANLSLLRRPGEKTYTQRCRLFVGNLPADITEDEFKRLFAKYGEPGEVFINKGKGFGFIKLESRALAEIAKAELDDTPMRGRQLRVRFATHAAALSVRNLSPYVSNELLEEAFSQFGPIERAVVIVDDRGRSTGKGIVEFASKPAARKAFERCSEGVFLLTTTPRPVIVEPLEQLDDEDGLPEKLAQKNPMYQKERETPPRFAQHGTFEYEYSQRWKSLDEMEKQQREQVEKNMKDAKDKLESEMEDAYHEHQANLLRQDLMRRQEELRRMEELHSQEMQKRKEMQLRQEEERRRREEEMMIRQREMEEQMRRQREESYSRMGYMDPRERDMRMGGGGTMNMGDPYGSGGQKFPPLGGGGGIGYEANPGVPPATMSGSMMGSDMRTERFGQGGAGPVGGQGPRGMGPGTPAGYGRGREEYEGPNKKPRF
B4: TCOF1 (endogenous, mouse) (protein, UniProt O08784 1-1320)
chain: MAEARKRRELLPLIYHHLLQAGYVRAAREVKEQSGQKSFLTQPVTLLDIYTHWQQTSELGQKQKAEDDETLQAKKSRVSDPVSSSESSDQEKEEEAATERAKATPRPTPVNSATAALPSKVKEKGKTKTANKTVNSVSHPGSGKTVVHLLSGKSPKKSAEPLANTVLASETEEEGNAQALGPTAKSGTVSAGQGSSSSEDSSISSDETDVEVKSPAKPAQAKASAAPAKDPPARTAPGPTKLGNVAPTPAKPARAAAAAAAAAVAAAAAAAAEESESSEEDSDSEDEAPAGLPSQVKASGKGPHVRADSVSAKGISGKGPILATPGKTGPAATQAKAERPEKDSETSSEDDSDSEDEMPVTVNTPQARTSGKSPRARGTSAPAKESSQKGAPAVTPGKARPVAAQAGKPEAKSSEESESDSGETPAAATLTTSPAKVKPLGKSSQVRPVSTVTPGSSGKGANLPCPGKVGSAALRVQMVKKEDVSESSSAELDSDGPGSPAKAKASLALPQKVRPVATQVKTDRGKGHSGSSEESSDSEEEAAPAASAAQAKPALEKQMKASSRKGTPASATGASTSSHCKAGAVTSSASLSSPALAKGTQRSDVDSSSESESEGAAPSTPRVQGKSGGKGLQGKAALGQGVAPVHTQKTGPSVKAMAQEDSESLEEDSSSEEEDETPAQATPLGRLPQAKANPPPTKTPPASASGKAVAAPTKGKPPVPNSTVSARGQRSVPAAGKAGAPATQAQKGPVAGTGEDSESSSKEESDSEEETPAQIKPVGKTSQVRAASAPAKESPKKGAHPGTPGKTGSSATQAQPGKTEDSDSSSEESDSDTEMPSAQAIKSPPVSVNRNSSPAVPAPTPEGVQAVNTTKKASGTTAQSSSSESEDGDEDLIPATQPSTYALRTSVTTPAALSRAASQPSKSEQSSRMPKGKKAKAAASAQTSSAVETLPMMPPQSAPIQPKATNKLGKSKLPEKQQLAPGYPKAPRSSEDSSDTSSEDEEDAKRPQMPKSAHRLDPDPSQKETVVEETPTESSEDEMVAPSQSLLSGYMTPGLTVANSQASKATPRPDSNSLASSAPATKDNPDGKQKSKSQHAADTALPKTGRKEASSGSTPQKPKKLKKSTSSSPAPTQTLPNSITQRLLEQAWPLSEAQVQASVVKVLTELLEQERLKATEAIKESGKKSQKRKLSGDLEAGAPKNKKKKEQPVPRASAVSPEKAPMTSKAKSKLDKGSAGGKGKGSPGPQGAKEKPDGELLGIKLESGEQSDPKSKSKKKKSLKKKKDKEKKEKKKGKKSLAKDSASPIQKKKKKKKKSAEPAV
B5: BTBD1 (endogenous, mouse) (protein, UniProt P58544 1-488)
chain: MASLGSAAAGEPATGAEAEPGPPAPPPPPPPPPAPSPSALGPLLPLQREPLYNWQATKASLKERFAFLFNSELLSDVRFVLGKGRGAAAAGGPQRIPAHRFVLAAGSAVFDAMFNGGMATTSAEIELPDVEPAAFLALLRFLYSDEVQIGPETVMTTLYTAKKYAVPALEAHCVEFLTKHLRADNAFMLLTQARLFDEPQLASLCLDTIDKSTVDAISAEGFTDIDIDTLCAVLERDTLSIRESRLFGAIVRWAEAECQRQQLAVTFGNKQKVLGKALSLIRFPLMTIEEFAAGPAQSGILSDREVVNLFLHFTVNPKPRVEYIDRPRCCLRGKECCINRFQQVESRWGYSGTSDRIRFTVNRRISVVGFGLYGSIHGPTDYQVNIQIIEYEKKQTLGQNDTGFSCDGTANTFRVMFKEPIEILPNVCYTACATLKGPDSHYGTKGLKKVVHETPAASKTVFLFFSSPGNNNGTSIEDGQIPEIIFYT
B6: LIGIII (endogenous, mouse) (enzyme, UniProt P97386 1-1015)
chain: MTLAFKILFPRNLCALGRKELCLFPEQNRWAAISQFSQWSETNLLGGCCLLQRRKPVLALQRGHLRPRATHLTFWPGSHVGLCTGPCAMAEQRFCVDYAKRGTAGCKKCKEKIVKGVCRIGKVVPNPFSESGGDMKEWYHIKCMFEKLERARATTKKIEDLTELEGWEELEDNEKEQISQHIADLSSKAAATPKKKAAVQAKLTTTGQVTSPVKGASFITSTNPRKFSGFSAAKPNNSEQAPSSPAPGTSLSASKCDPKHKDCLLREFRKLCAMVAENPSYNTKTQIIHDFLQKGSTGGFSDGFHGDVYLTVKLLLPGVIKSVYNLNDKQIVKLFSRIFNCNPDDMARDLEQGDVSETIRIFFEQSKSFPPAAKSLLTIQEVDAFLLHLSKLTKEDEQQQALQDIASRCTANDLKCIIRLIKHDLKMNSGAKHVLDALDPNAYEAFKASRNLQDVVERVLHNEQEVEKDPGRRRALRVQASLMTPVQPMLAEACKSIEYAMKKCPNGMFSEIKYDGERVQVHKKGDHFSYFSRSLKPVLPHKVAHFKDYIPKAFPGGQSMILDSEVLLIDNNTGKPLPFGTLGVHKKAAFQDANVCLFVFDCIYFNDVSLMDRPLCERRKFLHDNMVEIRNRIMFSEMKQVTKASDLADMINRVIREGLEGLVLKDVKGTYEPGKRHWLKVKKDYLNEGAMADTADLVVLGAFYGQGSKGGMMSIFLMGCYDPDSQKWCTVTKCAGGHDDATLARLQKELVMVKISKDPSKIPSWLKINKIYYPDFIVPDPKKAAVWEITGAEFSRSEAHTADGISIRFPRCTRIRDDKDWKSATNLPQLKELYQLSKDKADFAVVAGDEASPTTGGSSGENEGTAGSAGPCKGPPSKSSASAKTTEQKLNSPSSRGGIKPIPKHSPMKPGEKLAVKSSPVKVGMKRKATDETPCLKKVLLDVFTGVRLYLPPSTPDFKRLKRYFVAFDGDLVQEFDMGSATHVLGNREKNTDAQLVSSEWIWACIRKRRLIAPC

Assays:
[1] = biological target: GFP-tagged human TOP1 (GFP-TOP1) (human) (UniProt P11387); test: affinity purification with mass spectrometry; native-IP without cross-linking: nuclear extracts in HGN165 buffer (20 mM HEPES pH 7.4, 10% glycerol, 165 mM NaCl) with Benzonase; GFP-Trap_A; SDS-PAGE slices, LC-MS/MS; control: cells expressing GFP
[2] = biological target: GFP-tagged human TOP1 (GFP-TOP1) (human) (UniProt P11387); test: affinity purification with mass spectrometry; DSP-IP: AID-activated P388/CPT45-GFP-TOP1 cells cross-linked with 0.6 mM DSP for 30 min; nuclear extract with Benzonase; GFP-Trap_A; washes up to 500 mM NaCl; 18O/16O labelling, LC-MS/MS; control: cells expressing GFP
[3] = biological target: GFP-tagged human TOP1 (GFP-TOP1) (human) (UniProt P11387); test: affinity purification with mass spectrometry; GFP-TOP1 IP with GFP-Trap_A from P388/CPT45 nuclear extract; the text does not tell whether by DSP-IP, native-IP or both (Supplementary Tables 1 and 2)

Molecule	binding [1]	binding [2]	binding [3]
SMARCA4 (endogenous, mouse) (from UniProt Q3TKT4 1-1613)	binds	binds	
NCL (endogenous, mouse) (from UniProt P09405 1-707)			binds
TDP1 (tyrosyl-DNA phosphodiesterase 1), endogenous, mouse (from UniProt Q8BJ37 1-609) (enzyme)			binds
XRCC1 (endogenous, mouse) (from UniProt Q60596 1-631)	binds	binds	
ELAVL1 (endogenous, mouse) (from UniProt P70372 1-326)			binds
ARID1A (endogenous, mouse) (from UniProt A2BH40 1-2283)		binds	
CHD4 (endogenous, mouse) (from UniProt Q6PDQ2 1-1915)	binds	binds	
PARP1 (endogenous, mouse) (from UniProt P11103 1-1013)	binds	binds	
SRSF1 (endogenous, mouse) (from UniProt Q6PDM2 1-248)			binds
PNKP (polynucleotide kinase phosphatase), endogenous, mouse (from UniProt Q9JLV6 1-522) (enzyme)			binds
SMARCC1 (endogenous, mouse) (from UniProt P97496 1-1104)		binds	
B1			binds
B2			binds
B3			binds
B4			binds
B5			binds
B6			binds

Results are given in words; binding and its absence hold for the method and conditions named. Binding seen in cells or lysates may run through a third protein. A yes stands for co-enrichment or nearness to the bait. Other partners may have been found.
